Source: the supplement of paper PMC12819154, “High-throughput peptide-centric local stability assay extends protein–ligand identification to membrane proteins, tissues and bacteria” (Nature Structural & Molecular Biology, 2025)
The list shows a part of the results. Most entries show no effect beyond the scatter of the controls.

Protein sequences, listed by entry. Tags and fused reporters are not part of them. Lines headed by an entry give the natural chain unless they say otherwise; changes in a name come on top.
UniProt Q9JM96: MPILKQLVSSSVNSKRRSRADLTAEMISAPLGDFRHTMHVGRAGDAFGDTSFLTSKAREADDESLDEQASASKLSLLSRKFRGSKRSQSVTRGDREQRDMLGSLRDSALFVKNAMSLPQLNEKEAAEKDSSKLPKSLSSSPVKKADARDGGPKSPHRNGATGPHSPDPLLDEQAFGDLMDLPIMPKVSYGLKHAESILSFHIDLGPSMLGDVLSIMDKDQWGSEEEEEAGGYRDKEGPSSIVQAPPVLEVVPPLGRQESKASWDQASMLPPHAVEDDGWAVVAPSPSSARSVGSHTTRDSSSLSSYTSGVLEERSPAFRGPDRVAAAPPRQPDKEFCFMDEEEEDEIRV
UniProt Q9JKW0, whole entry: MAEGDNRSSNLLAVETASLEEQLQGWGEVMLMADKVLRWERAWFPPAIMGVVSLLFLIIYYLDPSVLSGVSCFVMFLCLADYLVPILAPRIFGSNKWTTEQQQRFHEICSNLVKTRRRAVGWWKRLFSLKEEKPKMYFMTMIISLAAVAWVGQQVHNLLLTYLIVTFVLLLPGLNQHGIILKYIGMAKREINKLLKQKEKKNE
UniProt Q9ES74: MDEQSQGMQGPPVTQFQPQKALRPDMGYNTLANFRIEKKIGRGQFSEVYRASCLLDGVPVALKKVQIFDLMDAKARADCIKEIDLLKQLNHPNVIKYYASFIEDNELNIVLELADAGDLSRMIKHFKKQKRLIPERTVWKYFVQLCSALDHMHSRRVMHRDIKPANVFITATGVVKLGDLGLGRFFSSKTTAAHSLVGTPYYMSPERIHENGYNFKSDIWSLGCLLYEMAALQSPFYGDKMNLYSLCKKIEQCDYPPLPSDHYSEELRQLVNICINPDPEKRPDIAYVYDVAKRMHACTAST
UniProt Q9JIX9: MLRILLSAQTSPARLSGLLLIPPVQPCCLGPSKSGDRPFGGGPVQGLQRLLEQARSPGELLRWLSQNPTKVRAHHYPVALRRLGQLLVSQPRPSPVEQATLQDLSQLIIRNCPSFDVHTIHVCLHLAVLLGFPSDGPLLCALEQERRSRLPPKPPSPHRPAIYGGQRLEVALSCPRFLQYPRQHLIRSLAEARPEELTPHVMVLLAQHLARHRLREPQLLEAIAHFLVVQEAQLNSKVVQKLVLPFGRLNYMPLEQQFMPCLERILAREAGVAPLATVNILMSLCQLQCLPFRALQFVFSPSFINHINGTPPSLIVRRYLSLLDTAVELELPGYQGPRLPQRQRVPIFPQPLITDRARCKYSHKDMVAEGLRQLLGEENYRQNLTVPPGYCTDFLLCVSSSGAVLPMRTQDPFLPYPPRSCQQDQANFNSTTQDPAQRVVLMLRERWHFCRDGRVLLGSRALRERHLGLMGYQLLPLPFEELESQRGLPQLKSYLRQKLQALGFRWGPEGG
UniProt Q9JJF3: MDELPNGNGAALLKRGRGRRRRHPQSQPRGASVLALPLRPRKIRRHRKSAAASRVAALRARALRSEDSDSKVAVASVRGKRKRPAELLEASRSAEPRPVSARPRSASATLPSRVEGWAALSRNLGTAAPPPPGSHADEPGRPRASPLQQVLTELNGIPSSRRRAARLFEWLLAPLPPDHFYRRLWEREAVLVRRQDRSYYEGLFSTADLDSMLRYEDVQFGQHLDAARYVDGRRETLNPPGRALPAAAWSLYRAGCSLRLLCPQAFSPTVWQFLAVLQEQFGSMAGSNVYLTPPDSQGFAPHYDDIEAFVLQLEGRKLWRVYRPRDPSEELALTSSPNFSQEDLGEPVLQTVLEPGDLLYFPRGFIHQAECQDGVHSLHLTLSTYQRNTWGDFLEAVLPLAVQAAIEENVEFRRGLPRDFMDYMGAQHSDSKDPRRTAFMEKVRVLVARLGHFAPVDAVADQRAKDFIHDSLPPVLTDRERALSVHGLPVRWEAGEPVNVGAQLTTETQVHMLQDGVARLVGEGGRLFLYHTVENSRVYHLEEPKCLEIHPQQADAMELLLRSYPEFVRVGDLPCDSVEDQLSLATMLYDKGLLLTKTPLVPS
UniProt Q9JKV5: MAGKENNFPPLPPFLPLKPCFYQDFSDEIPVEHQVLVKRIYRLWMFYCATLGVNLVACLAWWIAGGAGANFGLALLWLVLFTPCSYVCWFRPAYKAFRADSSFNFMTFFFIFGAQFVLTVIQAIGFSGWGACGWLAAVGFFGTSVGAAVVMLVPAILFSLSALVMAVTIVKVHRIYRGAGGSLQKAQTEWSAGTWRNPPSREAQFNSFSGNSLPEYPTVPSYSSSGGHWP
UniProt Q9JHS9: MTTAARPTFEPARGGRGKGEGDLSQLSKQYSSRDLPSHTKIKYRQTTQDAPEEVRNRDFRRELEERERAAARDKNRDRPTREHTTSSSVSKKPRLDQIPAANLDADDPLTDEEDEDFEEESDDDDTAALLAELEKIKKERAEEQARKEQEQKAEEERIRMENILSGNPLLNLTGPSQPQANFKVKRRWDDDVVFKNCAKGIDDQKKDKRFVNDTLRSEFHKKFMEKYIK
UniProt Q9ESV0: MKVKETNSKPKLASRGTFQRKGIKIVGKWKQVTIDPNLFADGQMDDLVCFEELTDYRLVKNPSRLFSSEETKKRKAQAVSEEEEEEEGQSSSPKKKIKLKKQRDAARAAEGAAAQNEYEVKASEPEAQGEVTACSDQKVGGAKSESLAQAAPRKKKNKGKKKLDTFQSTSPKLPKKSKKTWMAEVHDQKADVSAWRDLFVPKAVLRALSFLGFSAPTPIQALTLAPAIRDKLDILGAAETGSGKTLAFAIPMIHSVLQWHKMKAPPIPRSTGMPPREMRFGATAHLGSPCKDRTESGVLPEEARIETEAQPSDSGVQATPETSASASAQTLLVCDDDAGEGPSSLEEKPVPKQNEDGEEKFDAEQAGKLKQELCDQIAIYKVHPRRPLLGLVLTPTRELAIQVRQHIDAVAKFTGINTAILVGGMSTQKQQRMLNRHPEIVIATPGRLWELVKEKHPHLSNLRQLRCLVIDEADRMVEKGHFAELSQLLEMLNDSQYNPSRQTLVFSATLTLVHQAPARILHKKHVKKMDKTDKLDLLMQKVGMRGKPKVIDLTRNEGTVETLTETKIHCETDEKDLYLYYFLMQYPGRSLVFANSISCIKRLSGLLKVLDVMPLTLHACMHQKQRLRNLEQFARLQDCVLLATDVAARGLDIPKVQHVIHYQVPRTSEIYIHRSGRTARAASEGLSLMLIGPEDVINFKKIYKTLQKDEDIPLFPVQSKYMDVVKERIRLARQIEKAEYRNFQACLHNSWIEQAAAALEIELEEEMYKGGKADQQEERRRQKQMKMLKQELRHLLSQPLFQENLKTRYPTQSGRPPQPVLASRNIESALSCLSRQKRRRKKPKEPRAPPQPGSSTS
UniProt Q9JJR8: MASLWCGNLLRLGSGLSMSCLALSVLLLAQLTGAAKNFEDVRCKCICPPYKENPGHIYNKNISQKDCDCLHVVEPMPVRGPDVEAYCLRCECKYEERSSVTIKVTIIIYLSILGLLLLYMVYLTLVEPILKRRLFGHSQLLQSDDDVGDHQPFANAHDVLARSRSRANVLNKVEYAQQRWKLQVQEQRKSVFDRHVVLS
UniProt Q9JIB6, whole entry: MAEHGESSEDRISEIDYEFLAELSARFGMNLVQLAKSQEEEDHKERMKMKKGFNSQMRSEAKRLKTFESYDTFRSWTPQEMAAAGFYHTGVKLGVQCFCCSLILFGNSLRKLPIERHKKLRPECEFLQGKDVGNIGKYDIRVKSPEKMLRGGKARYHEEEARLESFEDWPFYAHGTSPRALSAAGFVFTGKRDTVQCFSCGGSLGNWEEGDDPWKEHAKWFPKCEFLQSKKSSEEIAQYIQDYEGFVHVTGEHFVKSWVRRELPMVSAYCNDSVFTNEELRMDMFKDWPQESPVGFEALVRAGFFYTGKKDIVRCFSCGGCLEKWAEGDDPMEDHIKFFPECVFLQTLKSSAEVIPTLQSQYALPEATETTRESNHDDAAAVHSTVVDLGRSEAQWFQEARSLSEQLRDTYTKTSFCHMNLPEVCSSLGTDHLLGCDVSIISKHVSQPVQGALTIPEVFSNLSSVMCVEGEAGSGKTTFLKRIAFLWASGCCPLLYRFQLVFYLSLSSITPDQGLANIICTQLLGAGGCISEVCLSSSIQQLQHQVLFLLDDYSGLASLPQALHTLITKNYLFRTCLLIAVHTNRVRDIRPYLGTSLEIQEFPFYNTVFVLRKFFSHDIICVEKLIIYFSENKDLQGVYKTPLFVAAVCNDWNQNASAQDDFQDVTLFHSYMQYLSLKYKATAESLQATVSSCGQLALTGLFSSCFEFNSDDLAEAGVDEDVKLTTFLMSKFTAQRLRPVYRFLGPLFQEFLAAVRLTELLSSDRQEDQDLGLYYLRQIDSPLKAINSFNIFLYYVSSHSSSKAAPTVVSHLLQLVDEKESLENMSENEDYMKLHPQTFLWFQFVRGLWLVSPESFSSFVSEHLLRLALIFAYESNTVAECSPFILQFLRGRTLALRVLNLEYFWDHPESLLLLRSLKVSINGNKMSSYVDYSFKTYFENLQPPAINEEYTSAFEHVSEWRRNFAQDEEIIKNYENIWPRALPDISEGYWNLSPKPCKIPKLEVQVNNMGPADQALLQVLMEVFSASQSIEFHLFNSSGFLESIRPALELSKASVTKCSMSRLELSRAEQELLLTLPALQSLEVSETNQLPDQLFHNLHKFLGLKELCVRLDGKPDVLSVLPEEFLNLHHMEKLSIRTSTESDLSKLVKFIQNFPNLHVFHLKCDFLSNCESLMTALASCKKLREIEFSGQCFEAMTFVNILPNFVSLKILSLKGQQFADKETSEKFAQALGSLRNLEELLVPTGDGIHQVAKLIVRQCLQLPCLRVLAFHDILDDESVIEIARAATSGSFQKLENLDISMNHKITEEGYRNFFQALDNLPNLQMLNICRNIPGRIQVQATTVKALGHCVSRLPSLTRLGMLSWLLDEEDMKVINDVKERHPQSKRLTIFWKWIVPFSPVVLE
UniProt Q9JLJ1, whole entry: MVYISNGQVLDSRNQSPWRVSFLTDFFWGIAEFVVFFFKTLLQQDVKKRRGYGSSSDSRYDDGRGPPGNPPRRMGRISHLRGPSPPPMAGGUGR
UniProt Q9JHS4, whole entry: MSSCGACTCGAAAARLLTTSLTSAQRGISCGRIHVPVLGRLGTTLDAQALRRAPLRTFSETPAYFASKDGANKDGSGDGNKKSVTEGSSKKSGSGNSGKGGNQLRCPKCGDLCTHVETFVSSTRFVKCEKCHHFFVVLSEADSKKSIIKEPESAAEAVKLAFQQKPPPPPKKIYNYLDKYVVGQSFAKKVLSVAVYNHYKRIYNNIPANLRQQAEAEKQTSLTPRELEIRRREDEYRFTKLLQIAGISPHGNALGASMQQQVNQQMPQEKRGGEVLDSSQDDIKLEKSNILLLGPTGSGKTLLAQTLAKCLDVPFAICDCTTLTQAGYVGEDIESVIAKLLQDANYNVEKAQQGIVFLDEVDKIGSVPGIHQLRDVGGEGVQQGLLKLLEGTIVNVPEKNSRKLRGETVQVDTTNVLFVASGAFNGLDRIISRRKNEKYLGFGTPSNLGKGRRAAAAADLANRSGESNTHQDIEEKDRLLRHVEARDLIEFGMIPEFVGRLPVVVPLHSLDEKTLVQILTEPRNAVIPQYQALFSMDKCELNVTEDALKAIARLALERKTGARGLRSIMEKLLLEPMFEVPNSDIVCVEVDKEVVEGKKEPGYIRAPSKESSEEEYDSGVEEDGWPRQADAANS
UniProt Q9JIH2: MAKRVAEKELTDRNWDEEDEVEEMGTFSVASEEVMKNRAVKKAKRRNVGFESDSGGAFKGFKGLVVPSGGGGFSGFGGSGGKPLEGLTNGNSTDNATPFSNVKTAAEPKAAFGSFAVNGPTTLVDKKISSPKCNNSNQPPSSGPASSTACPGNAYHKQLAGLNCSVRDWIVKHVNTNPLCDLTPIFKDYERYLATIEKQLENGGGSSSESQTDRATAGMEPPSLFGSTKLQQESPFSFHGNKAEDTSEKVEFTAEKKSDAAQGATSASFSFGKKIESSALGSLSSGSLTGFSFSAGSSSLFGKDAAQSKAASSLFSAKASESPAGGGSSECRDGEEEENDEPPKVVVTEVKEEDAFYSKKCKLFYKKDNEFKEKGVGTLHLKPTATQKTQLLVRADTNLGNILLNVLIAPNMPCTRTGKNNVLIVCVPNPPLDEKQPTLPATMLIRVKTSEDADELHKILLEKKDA
UniProt Q9JLZ8: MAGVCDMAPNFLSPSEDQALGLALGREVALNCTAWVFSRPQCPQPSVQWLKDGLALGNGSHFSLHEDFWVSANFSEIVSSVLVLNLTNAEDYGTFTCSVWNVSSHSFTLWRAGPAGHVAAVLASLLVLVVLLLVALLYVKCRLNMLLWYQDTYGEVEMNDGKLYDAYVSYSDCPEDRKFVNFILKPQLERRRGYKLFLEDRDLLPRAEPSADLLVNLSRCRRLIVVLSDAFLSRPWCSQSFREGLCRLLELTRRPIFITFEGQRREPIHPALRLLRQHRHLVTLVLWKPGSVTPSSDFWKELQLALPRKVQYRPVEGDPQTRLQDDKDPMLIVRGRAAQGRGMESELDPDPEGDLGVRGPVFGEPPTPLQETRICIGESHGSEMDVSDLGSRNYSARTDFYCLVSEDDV

Each target was assayed with CN[C@@H]1C[C@H]2O[C@@](C)([C@@H]1OC)n1c3ccccc3c3c4c(c5c6ccccc6n2c5c31)C(=O)NC4 [staurosporine] (assay: log2 fold change of tryptic peptide abundance, ligand vs vehicle (limited proteolysis) (log2 ratio); higher = more trypsin-susceptible (destabilized)). Details: ligand concentration: 20 uM; sample: mouse liver crude lysate; replicate design: treated separately.

Which log2 fold change does the source give for “UniProt Q9JM96 (peptide sequence: SLSSSPVKK, peptide start residue: 136)” here?
The log2 fold change was -0.268.

With “UniProt Q9JMD3 (peptide sequence: KKWDSNVIETFDIAR, peptide start residue: 93)” as the target, how does the log2 fold change read?
The log2 fold change was -0.422.

“UniProt Q9JKP8 (peptide sequence: LVSLPLSR, peptide start residue: 16)” was tested. Which log2 fold change did it give?
The log2 fold change was 0.145.

Which log2 fold change does the source give for “UniProt Q9JHH9 (peptide sequence: EPSLYTIK, peptide start residue: 35)” here?
The log2 fold change was 0.268.

With “UniProt Q9JKW0 (peptide sequence: FHEICSNLVK, peptide start residue: 105)” as the target, how does the log2 fold change read?
The log2 fold change was 0.241.

“UniProt Q9ES74 (peptide sequence: ASCLLDGVPVALK, peptide start residue: 51)” was tested. Which log2 fold change did it give?
The log2 fold change was -0.172.

With “UniProt Q9JIX9 (peptide sequence: LEVALSCPR, peptide start residue: 168)” as the target, how does the log2 fold change read?
Its log2 fold change is -0.0679.

For “UniProt Q9JJF3 (peptide sequence: RETLNPPGR, peptide start residue: 234)”, which log2 fold change is on record?
The log2 fold change was 0.464.

“UniProt Q9ET54 (peptide sequence: GVTPAGFPKK, peptide start residue: 883)” was tested. Which log2 fold change did it give?
The log2 fold change was 0.101.

With “UniProt Q9JKV5 (peptide sequence: AQTEWSAGTWR, peptide start residue: 186)” as the target, how does the log2 fold change read?
Its log2 fold change is 0.162.

With “UniProt Q9JMH9 (peptide sequence: APEGQAYR, peptide start residue: 244)” as the target, how does the log2 fold change read?
The log2 fold change was -0.279.

Which log2 fold change does the source give for “UniProt Q9JHQ5 (peptide sequence: LKTIEIQAVNALDEK, peptide start residue: 168)” here?
The log2 fold change was -0.184.

“UniProt Q9JHS9 (peptide sequence: YRQTTQDAPEEVR, peptide start residue: 43)” was tested. Which log2 fold change did it give?
The log2 fold change was -0.309.

How did the log2 fold change turn out when “UniProt Q9JIF7 (peptide sequence: LKEAELLEPLMPAIR, peptide start residue: 127)” was run?
Its log2 fold change is -0.342.

For “UniProt Q9JL61 (peptide sequence: SLITPISGTLK, peptide start residue: 339)”, which log2 fold change is on record?
The log2 fold change was 0.275.

Which log2 fold change does the source give for “UniProt Q9JIY7 (peptide sequence: LSVSSQHR, peptide start residue: 142)” here?
The log2 fold change was -0.114.

“UniProt Q9ESV0 (peptide sequence: FGATAHLGSPCKDRTESGVLPEEAR, peptide start residue: 280)” was tested. Which log2 fold change did it give?
The log2 fold change was -0.168.

For “UniProt Q9JJR8 (peptide sequence: SRANVLNKVEYAQQR, peptide start residue: 165)”, which log2 fold change is on record?
Its log2 fold change is -0.408.

Which log2 fold change does the source give for “UniProt Q9JIB6 (peptide sequence: FAQALGSLR, peptide start residue: 1271)” here?
The log2 fold change was 0.362.

Which log2 fold change does the source give for “UniProt Q9JLJ1 (peptide sequence: YDDGRGPPGNPPRR, peptide start residue: 60)” here?
The log2 fold change was 0.371.

For “UniProt Q9JI59 (peptide sequence: VTTMSENDFK, peptide start residue: 282)”, which log2 fold change is on record?
Its log2 fold change is -0.131.

For “UniProt Q9JKK1 (peptide sequence: KFNLDATELSIR, peptide start residue: 77)”, which log2 fold change is on record?
The log2 fold change was -0.0865.

For “UniProt Q9JHS4 (peptide sequence: VLSVAVYNHYKR, peptide start residue: 190)”, which log2 fold change is on record?
The log2 fold change was -0.148.

How did the log2 fold change turn out when “UniProt Q9JK53 (peptide sequence: ISNVPAISNK, peptide start residue: 299)” was run?
The log2 fold change was 0.231.

How did the log2 fold change turn out when “UniProt Q9JHJ0 (peptide sequence: DRDDYVPYTGEK, peptide start residue: 82)” was run?
The log2 fold change was -0.257.

How did the log2 fold change turn out when “UniProt Q9JMC3 (peptide sequence: ITDDMDQVELK, peptide start residue: 355)” was run?
Its log2 fold change is 0.159.

For “UniProt Q9JIH2 (peptide sequence: GVGTLHLKPTATQK, peptide start residue: 375)”, which log2 fold change is on record?
The log2 fold change was -0.338.

Which log2 fold change does the source give for “UniProt Q9JHW9 (peptide sequence: YFAGWADK, peptide start residue: 150)” here?
The log2 fold change was 0.218.

“UniProt Q9JLZ8 (peptide sequence: KVQYRPVEGDPQTR, peptide start residue: 309)” was tested. Which log2 fold change did it give?
Its log2 fold change is 0.279.

With “UniProt Q9ESJ0 (peptide sequence: LTASSTPPALDRK, peptide start residue: 1116)” as the target, how does the log2 fold change read?
The log2 fold change was -0.781.

Which log2 fold change does the source give for “UniProt Q9JI90 (peptide sequence: AESVQGGETR, peptide start residue: 28)” here?
Its log2 fold change is -0.437.
